{"source": "patent US9617285B2", "about": "“1-hydroxy-benzooxaboroles as antiparasitic agents” (priority 2013, dated 2017)", "key": {"[1]": {"system": "Haemonchus contortus", "assay": "In vitro larval migration assay (LMA)", "details": "L3 larvae; concentration of no greater than 100 μM"}, "[2]": {"system": "H. contortus", "assay": "In vivo gerbil antihelminthic test, H. contortus", "set-up": "species or system Mongolian gerbils (Meriones unguiculatus)", "details": "oral gavage and/or subcutaneous injection, dose of not more than 25 mg/kg, triple drug-resistant strain"}, "[3]": {"system": "Trichostrongylus colubriformis", "assay": "In vivo gerbil antihelminthic test, T. colubriformis", "set-up": "species or system Mongolian gerbils (Meriones unguiculatus)", "details": "oral gavage and/or subcutaneous injection, dose of not more than 25 mg/kg, benzimidazole-resistant strain"}}, "note": "Some results were stated once for a whole list of compounds, not compound by compound. For some of these results: At least one compound was matched to its structure with a doubt left."}
{"smiles": "Cc1cc(OCC(C)(C#N)NC(=O)c2ccc(OC(F)(F)F)cc2)c(C)c2c1COB2O", "note": "(stereo not shown) [Example 55, N-(2-Cyano-1-(1-hydroxy-4,7-dimethyl-1,3-dihydrobenzo[c][1,2]oxaborol-6-yloxy)propan-2-yl)-4-(trifluoromethoxy)benzamide]", "values": [{"measurement": "activity (inhibition of migration)", "setting": "[1]", "result": "≥ 50", "unit": "%"}, {"measurement": "efficacy (% reduction in nematode burden) against H. contortus", "setting": "[2]", "result": "≥ 80", "unit": "%"}]}
{"smiles": "CC(C#N)(COc1ccc2c(c1Oc1ccccc1)B(O)OC2)NC(=O)c1ccc(OC(F)(F)F)cc1", "note": "(stereo not shown) [Example 33, N-(2-cyano-1-(1-hydroxy-7-phenoxy-1,3-dihydrobenzo[c][1,2]oxaborol-6-yloxy)propan-2-yl)-4-(trifluoromethoxy)benzamide]", "values": [{"measurement": "activity (inhibition of migration)", "setting": "[1]", "result": "≥ 50", "unit": "%"}]}
{"smiles": "CC(C#N)(COc1ccc2c(c1N)B(O)OC2)NC(=O)c1ccc(OC(F)(F)F)cc1", "note": "(stereo not shown) [Example 49, N-(1-(7-amino-1-hydroxy-1,3-dihydrobenzo[c][1,2]oxaborol-6-yloxy)-2-cyanopropan-2-yl)-4-(trifluoromethoxy)benzamide]", "values": [{"measurement": "activity (inhibition of migration)", "setting": "[1]", "result": "≥ 50", "unit": "%"}]}
{"smiles": "CC(COc1ccc2c(c1CN)B(O)OC2)(NC(=O)c1ccc(OC(F)(F)F)cc1)C(N)=O", "note": "(stereo not shown) [Example 48, N-(1-amino-3-(7-(aminomethyl)-1-hydroxy-1,3-dihydrobenzo[c][1,2]oxaborol-6-yloxy)-2-methyl-1-oxopropan-2-yl)-4-(trifluoromethoxy)benzamide]", "values": [{"measurement": "activity (inhibition of migration)", "setting": "[1]", "result": "≥ 50", "unit": "%"}]}
{"smiles": "CCCc1c(OCC(C)(C#N)NC(=O)c2ccc(OC(F)(F)F)cc2)ccc2c1B(O)OC2", "note": "(stereo not shown) [Example 37, N-(2-cyano-1-(1-hydroxy-7-propyl-1,3-dihydrobenzo[c][1,2]oxaborol-6-yloxy)propan-2-yl)-4-(trifluoromethoxy)benzamide]", "values": [{"measurement": "activity (inhibition of migration)", "setting": "[1]", "result": "≥ 50", "unit": "%"}]}
{"smiles": "CC(C#N)(COc1ccc2c(c1I)B(O)OC2)NC(=O)c1ccc(OC(F)(F)F)cc1", "note": "(stereo not shown) [Example 50, N-(2-cyano-1-(1-hydroxy-7-iodo-1,3-dihydrobenzo[c][1,2]oxaborol-6-yloxy)propan-2-yl)-4-(trifluoromethoxy)benzamide]", "values": [{"measurement": "activity (inhibition of migration)", "setting": "[1]", "result": "≥ 50", "unit": "%"}]}
{"smiles": "COc1c(OC[C@](C)(C#N)NC(=O)c2ccc(OC(F)(F)F)cc2)ccc2c1B(O)OC2", "note": "(single isomer, unassigned) [Example 5]", "values": [{"measurement": "activity (inhibition of migration)", "setting": "[1]", "result": "≥ 50", "unit": "%"}]}
{"smiles": "CC(C#N)(COc1ccc2c(c1Cl)B(O)OC2)NC(=O)c1ccc(S(F)(F)(F)(F)F)cc1", "note": "(stereo not shown) [Example 21a, N-(1-(7-chloro-1-hydroxy-1,3-dihydrobenzo[c][1,2]oxaborol-6-yloxy)-2-cyanopropan-2-yl)-4-(pentafluorothio)benzamide]", "values": [{"measurement": "activity (inhibition of migration)", "setting": "[1]", "result": "≥ 50", "unit": "%"}]}
{"smiles": "C[C@](C#N)(COc1ccc2c(c1-c1ccccc1)B(O)OC2)NC(=O)c1ccc(OC(F)(F)F)cc1", "note": "(single isomer, unassigned) [Example 36]", "values": [{"measurement": "activity (inhibition of migration)", "setting": "[1]", "result": "≥ 50", "unit": "%"}]}
{"smiles": "CC(C#N)(COc1ccc2c(c1F)B(O)OC2)NC(=O)c1ccc(OC(F)(F)F)cc1", "note": "(stereo not shown) [Example 25, N-(2-cyano-1-(7-fluoro-1-hydroxy-1,3-dihydrobenzo[c][1,2]oxaborol-6-yloxy)propan-2-yl)-4-(trifluoromethoxy)benzamide]", "values": [{"measurement": "activity (inhibition of migration)", "setting": "[1]", "result": "≥ 50", "unit": "%"}, {"measurement": "efficacy (% reduction in nematode burden) against T. colubriformis", "setting": "[3]", "result": "≥ 80", "unit": "%"}]}
{"smiles": "CC(C#N)(COc1c(F)cc2c(c1Cl)B(O)OC2)NC(=O)c1ccc(OC(F)(F)F)cc1", "note": "(stereo not shown) [Example 13, N-(1-(7-chloro-5-fluoro-1-hydroxy-1,3-dihydrobenzo[c][1,2]oxaborol-6-yloxy)-2-cyanopropan-2-yl)-4-(trifluoromethoxy)benzamide]", "values": [{"measurement": "activity (inhibition of migration)", "setting": "[1]", "result": "≥ 50", "unit": "%"}, {"measurement": "efficacy (% reduction in nematode burden) against H. contortus", "setting": "[2]", "result": "≥ 80", "unit": "%"}]}
{"smiles": "CC(C#N)(COc1ccc2c(c1CN)B(O)OC2)NC(=O)c1ccc(OC(F)(F)F)cc1", "note": "(stereo not shown) [Example 47, N-(1-(7-(aminomethyl)-1-hydroxy-1,3-dihydrobenzo[c][1,2]oxaborol-6-yloxy)-2-cyanopropan-2-yl)-4-(trifluoromethoxy)benzamide]", "values": [{"measurement": "activity (inhibition of migration)", "setting": "[1]", "result": "≥ 50", "unit": "%"}]}
{"smiles": "COCCOc1c(OCC(C)(C#N)NC(=O)c2ccc(OC(F)(F)F)cc2)ccc2c1B(O)OC2", "note": "(stereo not shown) [Example 28, N-(2-cyano-1-(1-hydroxy-7-(2-methoxyethoxy)-1,3-dihydrobenzo[c][1,2]oxaborol-6-yloxy)propan-2-yl)-4-(trifluoromethoxy)benzamide]", "values": [{"measurement": "activity (inhibition of migration)", "setting": "[1]", "result": "≥ 50", "unit": "%"}, {"measurement": "efficacy (% reduction in nematode burden) against H. contortus", "setting": "[2]", "result": "≥ 80", "unit": "%"}]}
{"smiles": "CC(C#N)(COc1ccc2c(c1OC(F)(F)F)B(O)OC2)NC(=O)c1ccc(OC(F)(F)F)cc1", "note": "(racemic) [Example 38a, N-(2-cyano-1-(1-hydroxy-7-(trifluoromethoxy)-1,3-dihydrobenzo[c][1,2]oxaborol-6-yloxy)-propan-2-yl)-4-(trifluoromethoxy)benzamide]", "values": [{"measurement": "activity (inhibition of migration)", "setting": "[1]", "result": "≥ 50", "unit": "%"}, {"measurement": "efficacy (% reduction in nematode burden) against H. contortus", "setting": "[2]", "result": "≥ 80", "unit": "%"}]}
{"smiles": "CC(C#N)(COc1cc(Cl)c2c(c1Cl)B(O)OC2)NC(=O)c1ccc(OC(F)(F)F)cc1", "note": "(stereo not shown) [Example 24, N-(2-cyano-1-(4,7-dichloro-1-hydroxy-1,3-dihydrobenzo[c][1,2]oxaborol-6-yloxy)propan-2-yl)-4-(trifluoromethoxy)benzamide]", "values": [{"measurement": "activity (inhibition of migration)", "setting": "[1]", "result": "≥ 50", "unit": "%"}]}
{"smiles": "COC(=O)c1c(OCC(C)(C#N)NC(=O)c2ccc(OC(F)(F)F)cc2)ccc2c1B(O)OC2", "note": "(stereo not shown) [Example 51, Methyl 6-(2-cyano-2-(4-(trifluoromethoxy)benzamido)propoxy)-1-hydroxy-1,3-dihydro-benzo[c][1,2]oxaborole-7-carboxylate]", "values": [{"measurement": "activity (inhibition of migration)", "setting": "[1]", "result": "≥ 50", "unit": "%"}]}
{"smiles": "Cc1cc(OCC(C)(C#N)NC(=O)c2ccc(OC(F)(F)F)cc2)cc2c1COB2O", "note": "(stereo not shown) [Example 39, N-(2-cyano-1-(1-hydroxy-4-methyl-1,3-dihydrobenzo[c][1,2]oxaborol-6-yloxy)propan-2-yl)-4-(trifluoromethoxy)benzamide]", "values": [{"measurement": "activity (inhibition of migration)", "setting": "[1]", "result": "≥ 50", "unit": "%"}]}
{"smiles": "CC(C#N)(COc1ccc2c(c1CC(F)(F)F)B(O)OC2)NC(=O)c1ccc(OC(F)(F)F)cc1", "note": "(stereo not shown) [Example 27, N-(2-cyano-1-(1-hydroxy-7-(2,2,2-trifluoroethyl)-1,3-dihydrobenzo[c][1,2]oxaborol-6-yloxy)propan-2-yl)-4-(trifluoromethoxy)benzamide]", "values": [{"measurement": "activity (inhibition of migration)", "setting": "[1]", "result": "≥ 50", "unit": "%"}, {"measurement": "efficacy (% reduction in nematode burden) against T. colubriformis", "setting": "[3]", "result": "≥ 80", "unit": "%"}]}
{"smiles": "COc1cc(OCC(C)(C#N)NC(=O)c2ccc(OC(F)(F)F)cc2)c(Cl)c2c1COB2O", "note": "(stereo not shown) [Example 56, N-(1-(7-chloro-1-hydroxy-4-methoxy-1,3-dihydrobenzo[c][1,2]oxaborol-6-yloxy)-2-cyanopropan-2-yl)-4-(trifluoromethoxy)benzamide]", "values": [{"measurement": "activity (inhibition of migration)", "setting": "[1]", "result": "≥ 50", "unit": "%"}]}
{"smiles": "CC(C#N)(COc1ccc2c(c1Cl)B(O)OC2)NC(=O)c1ccc(S(=O)(=O)C(F)(F)F)cc1", "note": "(racemic) [Example 17a, N-(1-(7-chloro-1-hydroxy-1,3-dihydrobenzo[c][1,2]oxaborole-6-yloxy)-2-cyanopropan-2-yl)-4-(trifluoromethylsulfonyl)benzamide]", "values": [{"measurement": "activity (inhibition of migration)", "setting": "[1]", "result": "≥ 50", "unit": "%"}, {"measurement": "efficacy (% reduction in nematode burden) against T. colubriformis", "setting": "[3]", "result": "≥ 80", "unit": "%"}]}
{"smiles": "CC(C)c1c(OCC(C)(C#N)NC(=O)c2ccc(OC(F)(F)F)cc2)ccc2c1B(O)OC2", "note": "(racemic) [Example 6a, N-(2-cyano-1-(1-hydroxy-7-isopropyl-1,3-dihydrobenzo[c][1,2]oxaborol-6-yloxy)propan-2-yl)-4-(trifluoromethoxy)benzamide]", "values": [{"measurement": "activity (inhibition of migration)", "setting": "[1]", "result": "≥ 50", "unit": "%"}, {"measurement": "efficacy (% reduction in nematode burden) against T. colubriformis", "setting": "[3]", "result": "≥ 80", "unit": "%"}]}
{"smiles": "CC(C#N)(COc1ccc2c(c1Cl)B(O)OC2)NC(=O)c1ccc(C#N)cc1", "note": "(racemic) [Example 22a, N-(1-(7-chloro-1-hydroxy-1,3-dihydrobenzo[c][1,2]oxaborol-6-yloxy)-2-cyanopropan-2-yl)-4-cyanobenzamide]", "values": [{"measurement": "activity (inhibition of migration)", "setting": "[1]", "result": "≥ 50", "unit": "%"}]}
{"smiles": "CC(=O)Nc1c(OCC(C)(C#N)NC(=O)c2ccc(OC(F)(F)F)cc2)ccc2c1B(O)OC2", "note": "(stereo not shown) [Example 44, N-(1-(7-acetamido-1-hydroxy-1,3-dihydrobenzo[c][1,2]oxaborol-6-yloxy)-2-cyanopropan-2-yl)-4-(trifluoromethoxy)benzamide]", "values": [{"measurement": "activity (inhibition of migration)", "setting": "[1]", "result": "≥ 50", "unit": "%"}, {"measurement": "efficacy (% reduction in nematode burden) against T. colubriformis", "setting": "[3]", "result": "≥ 80", "unit": "%"}]}
{"smiles": "C[C@](C#N)(COc1ccc2c(c1Cl)B(O)OC2)NC(=O)c1ccc(C#N)cc1", "note": "(single isomer, unassigned) [Example 22]", "values": [{"measurement": "activity (inhibition of migration)", "setting": "[1]", "result": "≥ 50", "unit": "%"}]}
{"smiles": "C[C@](C#N)(COc1ccc2c(c1OC(F)(F)F)B(O)OC2)NC(=O)c1ccc(OC(F)(F)F)cc1", "note": "(single isomer, unassigned) [Example 38]", "values": [{"measurement": "activity (inhibition of migration)", "setting": "[1]", "result": "≥ 50", "unit": "%"}, {"measurement": "efficacy (% reduction in nematode burden) against T. colubriformis", "setting": "[3]", "result": "≥ 80", "unit": "%"}]}
{"smiles": "CC(C#N)(COc1cc(F)c2c(c1Cl)B(O)OC2)NC(=O)c1ccc(OC(F)(F)F)cc1", "note": "(stereo not shown) [Example 26, N-(1-(7-chloro-4-fluoro-1-hydroxy-1,3-dihydrobenzo[c][1,2]oxaborol-6-yloxy)-2-cyanopropan-2-yl)-4-(trifluoromethoxy)benzamide]", "values": [{"measurement": "activity (inhibition of migration)", "setting": "[1]", "result": "≥ 50", "unit": "%"}]}
{"smiles": "CC(C#N)(COc1ccc2c(c1)B(O)OC2)NC(=O)c1ccc(OC(F)(F)F)cc1", "note": "(stereo not shown) [Example 10, N-(2-cyano-1-(1-hydroxy-1,3-dihydrobenzo[c][1,2]oxaborol-6-yloxy)propan-2-yl)-4-(trifluoromethoxy)benzamide]", "values": [{"measurement": "activity (inhibition of migration)", "setting": "[1]", "result": "≥ 50", "unit": "%"}]}
{"smiles": "CC(C#N)(COc1ccc2c(c1Br)B(O)OC2)NC(=O)c1ccc(OC(F)(F)F)cc1", "note": "(racemic) [Example 2a, N-(1-(7-bromo-1-hydroxy-1,3-dihydrobenzo[c][1,2]oxaborol-6-yloxy)-2-cyanopropan-2-yl)-4-(trifluoromethoxy)benzamide]", "values": [{"measurement": "activity (inhibition of migration)", "setting": "[1]", "result": "≥ 50", "unit": "%"}, {"measurement": "efficacy (% reduction in nematode burden) against T. colubriformis", "setting": "[3]", "result": "≥ 80", "unit": "%"}]}
{"smiles": "CC(C#N)(COc1cc2c(cc1Cl)COB2O)NC(=O)c1ccc(OC(F)(F)F)cc1", "note": "(stereo not shown) [Example 15, N-(1-(5-chloro-1-hydroxy-1,3-dihydrobenzo[c][1,2]oxaborol-6-yloxy)-2-cyanopropan-2-yl)-4-(trifluoromethoxy)benzamide]", "values": [{"measurement": "activity (inhibition of migration)", "setting": "[1]", "result": "≥ 50", "unit": "%"}]}
